## Primary screen of a compound library

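Viability assay of Plasmodium falciparum sporozoites; the read-out is not stated. The concentration is filed as 10 mM, unlikely as a test dose, so the dose is not known. The record gives no direction; compounds that gave an IC50 in retests scored well above the rest, so higher reads as lower viability. Strong results were mostly tested again. Of about 34,000 compounds tested this way, about 280 (0.84%) reached 50% or more in at least one test.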

Each number is a percent effect as filed. The controls that fix the scale are not given in the record; negative values are as filed. Compounds were drawn at random from those tested, without regard to their results. Two or more numbers in one place are separate tests of the same structure; such repeats can differ widely.

{"structure": "COc1cc(CN(C)C(=O)Cc2c(C)nn(C)c2C)ccc1OC(F)F", "Percent Effect": 3.359}
{"structure": "Cc1c(C(=O)N2CCCC(n3nnc4cc(F)ccc43)C2)cnn1C", "stereo": "centres unmarked", "Percent Effect": 6.739}
{"structure": "O=C(Cc1ccc(F)c(Br)c1)NC1CCN(CC(F)F)CC1", "Percent Effect": -2.316}
{"structure": "CS(=O)(=O)c1ccc(C(O)CN2CCC(c3ccn[nH]3)CC2)cc1", "stereo": "centres unmarked", "Percent Effect": -3.536}
{"structure": "CCc1ccsc1C(=O)N1CCCN(Cc2cnn(CC)c2)CC1", "Percent Effect": 11.8}
{"structure": "Cc1cc(=O)n(CC(=O)NCC2CCCO2)c(-c2ccc(F)cc2)n1", "stereo": "centres unmarked", "Percent Effect": 6.979}
{"structure": "CCOCc1nc(N2CCCC2)sc1C(=O)NCCC(=O)OCC", "Percent Effect": 8.147}
{"structure": "CCc1nc(CN2CCN(C(=O)c3cncnc3CC)CC2)cs1", "Percent Effect": -7.596}
{"structure": "O=C(O)C(F)(F)F.[H][C@]12CCN(C(=O)c3ccncc3F)[C@@]1([H])CCC(COCC1CC1)O2", "stereo": "some centres unmarked", "Percent Effect": 5}
{"structure": "CNc1ccc(CC2CCCN(C(=O)c3cnccn3)C2)nn1", "stereo": "centres unmarked", "Percent Effect": 5.858}
{"structure": "Cc1ccc(C(CNC(=O)Cc2nc3ncccn3n2)N(C)C)cc1", "stereo": "centres unmarked", "Percent Effect": 5.006}
{"structure": "Cc1cc(C2CCC2)nc(N2CC(n3cccn3)C2)n1", "Percent Effect": 7.777}
{"structure": "CC(C)CS(=O)(=O)CC(=O)NC1CCCCNC1=O", "stereo": "centres unmarked", "Percent Effect": -2.489}
{"structure": "CN1CCCC2(CCN(S(=O)(=O)c3ccc(-c4cnco4)s3)C2)C1=O", "stereo": "centres unmarked", "Percent Effect": "-109.2 and -120.3"}
{"structure": "[H][C@@]12CN(Cc3cccnc3)C[C@]1([H])C(=O)N(CC)C21CCN(C(C)=O)CC1", "Percent Effect": 5.133}
{"structure": "Cc1ccc(C(CNCc2cccnc2)N2CCOCC2)s1", "stereo": "centres unmarked", "Percent Effect": "-13.99 and -18.81 and 4.94"}
{"structure": "CCc1nc2n(n1)CCCC2NC(=O)Nc1ccc(F)cc1C#N", "stereo": "centres unmarked", "Percent Effect": -9.677}
{"structure": "COc1cc(C)nc(N2CCN(C(=O)CCc3cscn3)CC2)n1", "Percent Effect": -6.941}
{"structure": "Cc1nnc2n1CCN(Cc1ncc(-c3ccc(Cl)cc3)o1)C2", "Percent Effect": -6.925}
{"structure": "CCN1CCC(Cn2ccc3ccc(C(=O)OC)cc3c2=O)C1", "stereo": "centres unmarked", "Percent Effect": 3.421}
{"structure": "CCN(Cc1ccncc1)CC1(O)CCN(C(=O)c2ccccc2C)C1", "stereo": "centres unmarked", "Percent Effect": 27}
{"structure": "Cc1noc(C)c1CN(C)CC(c1cccs1)N1CCOCC1", "stereo": "centres unmarked", "Percent Effect": 15.72}
{"structure": "Cc1occc1C(=O)N1CCCN(Cc2nccn2C(C)C)CC1", "Percent Effect": 16.64}
{"structure": "Cc1nc(C2CCCN2Cc2ccn(C)c(=O)c2)no1", "stereo": "centres unmarked", "Percent Effect": 6.48}
{"structure": "Cl.O=C1CC2(CCCNC2)C(=O)N1Cc1ccccc1", "stereo": "centres unmarked", "Percent Effect": 1.807}
{"structure": "CC(C)n1cnnc1CN(C)C(=O)c1ccccc1-n1cncn1", "Percent Effect": -8.045}
{"structure": "CS(=O)(=O)c1cn[nH]c1C1CCCN1C(=O)c1cccnc1", "stereo": "centres unmarked", "Percent Effect": 11.83}
{"structure": "Cc1cccc(CN2CCC23CCCNC3)n1", "stereo": "centres unmarked", "Percent Effect": 1.664}
{"structure": "O=C(O)C(F)(F)F.[H][C@@]12CN(C(=O)C3CCOCC3)C[C@@]1([H])N(Cc1ccncc1)C(=O)CO2", "Percent Effect": -2.526}
{"structure": "Clc1ccc2oc(C3CCN(Cc4cccnc4)CC3)nc2c1", "Percent Effect": -2.706}
{"structure": "CCn1nc(C(C)C)cc1C(=O)N1CCOc2ccc(OC)cc21", "Percent Effect": -10.99}
{"structure": "CCn1ccc(C(=O)N2CCCC2c2nnc(-c3scnc3C)o2)n1", "stereo": "centres unmarked", "Percent Effect": 15.78}
{"structure": "Cc1cc(NC(=O)N(CC2CCOC2)C2CC2)no1", "stereo": "centres unmarked", "Percent Effect": -13.24}
{"structure": "Cc1cc(N2CCN(Cc3ccccc3)CC(O)C2)nc(N)n1", "stereo": "centres unmarked", "Percent Effect": 5.402}
{"structure": "CC(O)CN1CCC(CNCc2cccc(C(=O)N(C)C)c2)CC1", "stereo": "centres unmarked", "Percent Effect": 21.06}
{"structure": "CCC(N)c1ccccc1OCC(=O)N1CCCC1", "stereo": "centres unmarked", "Percent Effect": "6.51 and 8.955 and 6.007"}
{"structure": "COc1ccc(CNC(=O)c2nn(C)c3c2CS(=O)(=O)CC3)cc1OC", "Percent Effect": -2.851}
{"structure": "CCc1ccccc1OCC(=O)N1CCOCC1c1ncon1", "stereo": "centres unmarked", "Percent Effect": "-6.876 and 33.64 and -13.29"}

Once more, the final 4:

* CC(O)CN1CCC(CNCc2cccc(C(=O)N(C)C)c2)CC1 (centres unmarked) | 21.06%
* CCC(N)c1ccccc1OCC(=O)N1CCCC1 (centres unmarked) | 6.51% and 8.955% and 6.007%
* COc1ccc(CNC(=O)c2nn(C)c3c2CS(=O)(=O)CC3)cc1OC | -2.851%
* CCc1ccccc1OCC(=O)N1CCOCC1c1ncon1 (centres unmarked) | -6.876% and 33.64% and -13.29%

Source: ChEMBL document CHEMBL3988442, “University of Dundee, Small-Polar-MMV Screening Library” (2021).